PubChem BioAssay AID504764 | Drosophila RNAi Screening Center | 2011
In all, the deposit lists about 22,000 reagents; below is an unselected part of those that have a named target and a result. Of all reagents, 403 (1.9%) got an active call. 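Unnormalised raw counts per well; ratio z-scores behind the hit calls and whether each hit raises or lowers signal are not deposited.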 Not given: the amount of reagent.

Screen: 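Genome-wide screen for regulators of Notch-driven gene expression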 (primary screen)
Cells: Drosophila Kc167 cells
Reagent: long dsRNA against Drosophila genes
Duration: about 5 days (4 days dsRNA, then 24 h after transfection)
Challenge: transfection of constitutively active membrane-tethered Notch lacking the extracellular domain, read 24 h later
Measured: 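Firefly luciferase from an E(spl)m3 reporter with active Notch, plus control-promoter and uninduced reporter wells for normalisation; unnormalised counts, duplicate wells a and b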
Reading the numbers: induced reporter light, run 1, well a and induced reporter light, run 1, well b: higher = more light from the Notch target reporter with active Notch; control promoter light, run 1, well a and control promoter light, run 1, well b: higher = more light from the viral control promoter (cell number, transfection, viability); uninduced reporter light, run 1, well a: higher = more light from the Notch target reporter without active Notch
Hit rule: 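Hit if the duplicate-averaged log2 ratio of induced to control-promoter light gives a plate-wise z beyond ±2, or induced to uninduced beyond ±1.8; weak-control or discordant-duplicate wells dropped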
Calls: active = modifier hit (raised or lowered Notch signal); inactive = not a hit

Depletion of CG34326 (retired record) (GeneID 5740223) [DRSC19165] gave: induced reporter light, run 1, well a = 85235; induced reporter light, run 1, well b = 89440; control promoter light, run 1, well a = 1.03e5; control promoter light, run 1, well b = 1.00e5; uninduced reporter light, run 1, well a = 9490; inactive.
Silencing of pck (GeneID 31101) [DRSC18565] gave: induced reporter light, run 1, well a = 2.12e5; induced reporter light, run 1, well b = 2.12e5; control promoter light, run 1, well a = 2.86e5; control promoter light, run 1, well b = 3.01e5; uninduced reporter light, run 1, well a = 15975; inactive.
CG18649 (GeneID 39636) [DRSC10334] showed induced reporter light, run 1, well a = 68655; induced reporter light, run 1, well b = 92730; control promoter light, run 1, well a = 90285; control promoter light, run 1, well b = 84260; uninduced reporter light, run 1, well a = 8685; inactive.
With knock-down of Nhe1 (GeneID 33167) [DRSC00762], the screen gave induced reporter light, run 1, well a = 1.43e5; induced reporter light, run 1, well b = 1.89e5; control promoter light, run 1, well a = 2.48e5; control promoter light, run 1, well b = 1.79e5; uninduced reporter light, run 1, well a = 18785; inactive.

2 consecutive records from above:
CG34326 (retired record) (GeneID 5740223) [DRSC19165] → induced reporter light, run 1, well a: 85235; induced reporter light, run 1, well b: 89440; control promoter light, run 1, well a: 1.03e5; control promoter light, run 1, well b: 1.00e5; uninduced reporter light, run 1, well a: 9490; activity call: inactive
pck (GeneID 31101) [DRSC18565] → induced reporter light, run 1, well a: 2.12e5; induced reporter light, run 1, well b: 2.12e5; control promoter light, run 1, well a: 2.86e5; control promoter light, run 1, well b: 3.01e5; uninduced reporter light, run 1, well a: 15975; activity call: inactive

Continued:
Against Dpit47 (GeneID 35565) [DRSC04985], the entry reads induced reporter light, run 1, well a = 1.59e5; induced reporter light, run 1, well b = 1.64e5; control promoter light, run 1, well a = 1.51e5; control promoter light, run 1, well b = 1.27e5; uninduced reporter light, run 1, well a = 11225; inactive.
With knock-down of CG17841 (GeneID 31965) [DRSC17737], the screen gave induced reporter light, run 1, well a = 1.81e5; induced reporter light, run 1, well b = 1.55e5; control promoter light, run 1, well a = 2.09e5; control promoter light, run 1, well b = 1.99e5; uninduced reporter light, run 1, well a = 19035; inactive.
GstO1 (GeneID 38975) [DRSC10688] gave induced reporter light, run 1, well a = 1.78e5; induced reporter light, run 1, well b = 1.67e5; control promoter light, run 1, well a = 1.78e5; control promoter light, run 1, well b = 2.00e5; uninduced reporter light, run 1, well a = 8255; inactive.
Against fd96Cb (GeneID 43011) [DRSC16947] the deposit lists induced reporter light, run 1, well a = 1.41e5; induced reporter light, run 1, well b = 1.61e5; control promoter light, run 1, well a = 1.97e5; control promoter light, run 1, well b = 1.93e5; uninduced reporter light, run 1, well a = 12675; inactive.
Silencing of CG9483 (GeneID 34209) [DRSC03226] came out at: induced reporter light, run 1, well a = 2.35e5; induced reporter light, run 1, well b = 2.06e5; control promoter light, run 1, well a = 1.98e5; control promoter light, run 1, well b = 2.35e5; uninduced reporter light, run 1, well a = 16585; inactive.
With knock-down of Ir60e (GeneID 37917) [DRSC04227], the screen gave induced reporter light, run 1, well a = 2.10e5; induced reporter light, run 1, well b = 1.66e5; control promoter light, run 1, well a = 1.95e5; control promoter light, run 1, well b = 1.81e5; uninduced reporter light, run 1, well a = 14815; inactive.
Silencing of CG13021 (GeneID 31323) [DRSC17893] came out at: induced reporter light, run 1, well a = 1.33e5; induced reporter light, run 1, well b = 1.26e5; control promoter light, run 1, well a = 2.06e5; control promoter light, run 1, well b = 2.50e5; uninduced reporter light, run 1, well a = 10805; inactive.
Knock-down of RyR (GeneID 49090) [DRSC07543] resulted in: induced reporter light, run 1, well a = 2.38e5; induced reporter light, run 1, well b = 1.63e5; control promoter light, run 1, well a = 1.99e5; control promoter light, run 1, well b = 1.95e5; uninduced reporter light, run 1, well a = 19380; inactive.
